The record followed here is paper PMC12370185.

What all share (details): 10 mM Tris-Cl pH 7.5, 50 mM NaCl, 1 mM DTT, 0.25 mg/ml BSA, 2 mM MgCl2, 0.025% Nonidet P-40, 5% glycerol; 28 nM nucleosome library; 10 min on ice then 30 min …; high values mean tight binding; double strand, one strand shown
One assay relates to KLF4 + histone octamer. Put plainly: EMSA with sequencing. (Mobility shift assays separate free from complexed probe on a gel.)
Assay [1] has as its system c-MYC + MAX + histone octamer. Put plainly: EMSA with sequencing.
In the next assay the test system is OCT4 + histone octamer. Put plainly: Pioneer-seq (competitive nucleosome EMSA with sequencing).
The test system of a further assay is SOX2 + histone octamer. Described as above.

The list shows a part of the results. For some assays here: At the low end of the ranking the order means little.

For the sequence “GATGGACCCTATACGCGGCCCTTCCTGCAGACCTGGCTGGGCCTGGGCTTCCACAGTGTGAAGACACTGTGCAGGCCCAGGCAGGCCCAGCCTCTGCCCCACCCATCAGTGGAGTCCAGATGGCAGGCTACAGTTGGGAAGTCTCAGCCTGGGCCCCTCAGCCACCCTTGGTCTCATGCCCCGCCATGGTCACCCTCAGGAACCCACCCTTGCCAGTCGGATAGTGTTCC”, the binding signal (log2 relative supershift) was 2.48 in the assay on KLF4 + histone octamer, 0.394 in assay [1], -1.15 with OCT4 + histone octamer and -0.744 in the assay on SOX2 + histone octamer.

For the sequence “GATGGACCCTATACGCGGCAGCCCCTGCCTCCCTCCCTGCAGCTCCCAGACAGGCTGGGCCCCAGCAGCAGGCCGGGCTGTCTGGCTGCTGTTCAACAGGGAGTCCAGCTGCCTGGGGTCCTACAGAACGGGGCTGGGCAGGCATTCTTCTCTGTCCAGGCTCTGGCTTCAGGGCCAGGAAGGCAGGAGTTGTTGAGGTGCCTTAGTTTTTGCCAGTCGGATAGTGTTCC”, the binding signal (log2 relative supershift) with KLF4 + histone octamer was 1.55; in assay [1] it was 0.195; in the assay with OCT4 + histone octamer, -0.708; with SOX2 + histone octamer it was -0.52.

“GATGGACCCTATACGCGGCGAAAGCTAGCAGGAGGCGTTGCTCAAGTTCAAAACAATCTGTGCGTGTCCAGGCACGCGCGGAGCCAGACCCCAGCCGCGCGGCTCAGACCTCGCGAGAGCCATCACCTGAGAAATCCACAGCCTTTTCTCATCAGGCTTAGACTGTTTTTCCCATACCTCCAAGAAGGAAGACCCACATGTTAAAACTATTGCCAGTCGGATAGTGTTCC”: the binding signal (log2 relative supershift) in the assay with KLF4 + histone octamer is 1.51; in assay [1], 0.606; with OCT4 + histone octamer, -0.0483; in the assay on SOX2 + histone octamer, -0.192.

In the case of “GATGGACCCTATACGCGGCTACTATATAGCTACTCCCCTCTAATATGCACTCTAAGCCCCACCCTTACTGCACTGCTCCACCCTGTGTCTCACCACCATGTGTTTGCTCATGCTGTTCTCTTGGCTTCTCCCCACATCTTGCACCCTTGCTATTAAACTCCTAATGTTTCTTCAAAGTACAGTTCAAAGATCACTTCCTCTTGGGCATATTGCCAGTCGGATAGTGTTCC”, the binding signal (log2 relative supershift) with KLF4 + histone octamer is 1.13; in assay [1] it was 0.117; in the assay on OCT4 + histone octamer, -0.684; in the assay on SOX2 + histone octamer, -0.057.

Regarding “GATGGACCCTATACGCGGCAAACCCCGCCACTTCCCCTTCCTCGGTAAGAGGAACTTGGCGTTGCCCTGACAGGAAAGTCTTGGTGGGGCTTCTCGGAAGCCGCCACCGCTGCACTGCTGAGCAAAACCACAGGTCAGGGGCCAGGCCGGGGGCCAGGCTAGTGAGGACTGGCCATTGATAAAGTCACAGGCTCCATCTAAGCCCATCGGTGCCAGTCGGATAGTGTTCC”, the binding signal (log2 relative supershift) in the assay on KLF4 + histone octamer was 1.78; in assay [1], 0.0294; in the assay with OCT4 + histone octamer it was -0.569; in the assay with SOX2 + histone octamer, -0.542.

As for “GATGGACCCTATACGCGGCGGAGAGGAAGCCATCAGCGTAGCCATGGTGAGCTTTATCTTTCCCACCCTCGGAAGCACAGACATGGCCCGGCACGTGGCTCACGCCTGTAATCCCAACAGTTTGGGAAGCTGAGGCACGAGGATCGCTTGAGTTCACGAGTCAAGAGTTGGAGACCAGCCTGGGCAACATGGCGACACCTTGTCTGTACTTGCCAGTCGGATAGTGTTCC”, the binding signal (log2 relative supershift) in the assay on KLF4 + histone octamer is 2.18; in assay [1], 0.56; in the assay on OCT4 + histone octamer, -0.367; in the assay on SOX2 + histone octamer, -0.152.

On to “GATGGACCCTATACGCGGCGGGAGCTCCACTGAGGAGGGTGTGAGACATCACCAGCTGTGCCTGCATCCCCATCACAATCTCATAGAGAGCGGGAACAGCTTCCCAGGGAACAGCTCCGCACCCTGGGCATGAACACGAGTGCGTGTGTGTGACTATGAGAGTGTGTGAGGGTGTATTTGGGCATGAGTGTGCTGTGTGCATGTGTATATTGCCAGTCGGATAGTGTTCC”, for which the binding signal (log2 relative supershift) in the assay with KLF4 + histone octamer is 2.15; in assay [1], 0.164; with OCT4 + histone octamer it was -0.0756; in the assay on SOX2 + histone octamer it was -0.0672.

Consider “GATGGACCCTATACGCGGCATTGGGAATCTGGGAGCACTCTTCTTGGTGCCTTTGGCTCAGGATCACTCACAAGGCTGCAGTCAAGGTATCCCCTGGGGCAGCCATCGTCTCAAGCCTCCGCTGGAAGAGGGTGCATGTCCAAGCTTGCCCATGTGGCTGTGGGCAGGCCTCAAGTCTTCACTGGCTGTTGGCTGAAGGCATCAATTTCTTGCCAGTCGGATAGTGTTCC”, for which the binding signal (log2 relative supershift) in the assay with KLF4 + histone octamer was 1.75; in assay [1], 0.69; in the assay on OCT4 + histone octamer, -0.638; in the assay with SOX2 + histone octamer it was -0.722.

As to “GATGGACCCTATACGCGGCCCGGGCAGAACTACTGAGCGAGGAGCCTATCAGTCCTGGTTCCCAAGCTCCCTGCCCCAGCCTGCCCCTGGCCTCCCAGTGCCTTGGCCTGCCTCACATGCCTGGGCTTGGCCCCAGGTTATCTTCAGAGCCATCCCATCCTGCCTCCCTGACTGACCATGCCACTTCCCGCTCAAAACCTGTCCATGGCTTGCCAGTCGGATAGTGTTCC”, the binding signal (log2 relative supershift) with KLF4 + histone octamer is 0.584; in assay [1], 0.416; in the assay with OCT4 + histone octamer it was -0.809; with SOX2 + histone octamer, -0.804.

Regarding “GATGGACCCTATACGCGGCCCAGGCTGTAGATGTTCCAGGCTCCCCACTGAGGTATCACAGAAGGCTGGGTGGGGAGCTGGCACTTTCATCCTCACCAGTTGATAGTAAGAACCTCCCTCTTCTACGCTGGTACCCATGAAGACCATGTGGGTAGCCTGGACTCCACTCCCACCTGGTGGTAACAAGGCAACCTATCACCAGTGTCAGTGTGCCAGTCGGATAGTGTTCC”, the binding signal (log2 relative supershift) in the assay with KLF4 + histone octamer was 1.81; in assay [1], 0.591; in the assay with OCT4 + histone octamer, -0.789; with SOX2 + histone octamer, -0.294.

With “GATGGACCCTATACGCGGCGAGGCACAGAGGCCTGAAGGGGACAGAGTGGGCAGGCCAGGTAGGCCGGGAAAGGTTTGAGGTGGGGACAATAGCCCTGCCCCTCCCCCACTCACGCCTTGAGCCCCTCCTTCTTCAGGATCTGCAAGCCGCAGTCCCACGTGTTCCGGTATTTGTGCGCCTCCAGGCCCTATGGGGGACATCAGCAGGCATGCCAGTCGGATAGTGTTCC”, the binding signal (log2 relative supershift) with KLF4 + histone octamer is 1.5; in assay [1] it was 0.605; in the assay with OCT4 + histone octamer, -0.26; with SOX2 + histone octamer, -0.455.

“GATGGACCCTATACGCGGCATGAGCACTCCAGAGGTGGCAGCAAAAGCCACAGCCTGGGTCTATAGCACAAACATCTGGTCAGCACACAGTCACTGCCTTGCCCCACCCATCCCTTTGGCCTCCTCAGGCCTCCAACTGGTGGAGCCTTAGTCCCGCATCCACATGGCCACACCAGAGAAGAGAGCTAGGTGGAGGATGGGTCCCTCCCTTGCCAGTCGGATAGTGTTCC”: the binding signal (log2 relative supershift) is 2.32 in the assay on KLF4 + histone octamer, 0.422 in assay [1], -0.79 with OCT4 + histone octamer and -0.581 in the assay on SOX2 + histone octamer.

As for “GATGGACCCTATACGCGGCAGCATGATTCTCGCGATCCGCAGGGCCTCTCGGCTGCTGATCTTCAGCTGGTTGCTGAGAGTTGCAGCATTGCTGAGTCTTAGCAATGGATACTTCCCGATTCCCCTCACAAAAATAGGTCAGTCTGTCTGGCTAGTTCTGTACTTGCAGACACAGGGCATGTGGGGTTCCGGATCCAGCGACTTTACCGGTGCCAGTCGGATAGTGTTCC”, the binding signal (log2 relative supershift) in the assay on KLF4 + histone octamer is 0.102; in assay [1], 0.68; with OCT4 + histone octamer, -0.374; with SOX2 + histone octamer, -0.291.

As for “GATGGACCCTATACGCGGCATGCTGTCTCTCTCACACATACACACATGGGCACATTCACAGGGATGCATACACGCCCCCACACCACATGCTTCCATACACATATGCATACATGAGGGCACATACACACGCCCATGCCACATGCTCACACACATACATGGGCACATACACAGGGGTGCATACACACCCATACCACCTCCTCTCACACACACTGCCAGTCGGATAGTGTTCC”, the binding signal (log2 relative supershift) in the assay with KLF4 + histone octamer was 1.03; in assay [1] it was 0.982; in the assay with OCT4 + histone octamer, -1.41; with SOX2 + histone octamer, -0.434.

On to “GATGGACCCTATACGCGGCCCCACGGACACACATACATCAACACCCCCAAAACACACCCACATGTCACCAACTCTCAGGACACACGTAGATCAGGCACACACAGACACATGCCATCAGACCTCAACACACCACCAGACACCAACCCACCCTCCTCACGCAACCCTCAAACATCATCACCAACTGTCAGCAACACACACACACACACACCCTGCCAGTCGGATAGTGTTCC”, for which the binding signal (log2 relative supershift) with KLF4 + histone octamer is 2.76; in assay [1] it was 0.676; in the assay on OCT4 + histone octamer, -0.759; in the assay on SOX2 + histone octamer, -0.265.

Turning to “GATGGACCCTATACGCGGCGCGGAAGCCACCCACCAAGCTCACACAAGGGATGTGGCTGAACATGTGCTGGGCAAACACTAGAGGGTGAGAGTGGGGCTGACTTAGTAAAAGGGACATGTGGCTTGATTTTTAGTGAAATACCATAGTGTCACAACTAGTGCTGTCTCTGCCCCACGCCAAAAGGAAAAGTCAAGTGAAATAGGCTGGGTTGCCAGTCGGATAGTGTTCC”, the binding signal (log2 relative supershift) was 2.44 with KLF4 + histone octamer, 0.204 in assay [1], -1.04 with OCT4 + histone octamer and -0.121 with SOX2 + histone octamer.

For “GATGGACCCTATACGCGGCAGCTGGGAGAGGCTAGTAGGGTGTGTGGGCAGGGAGGGGTGGAGGAGTCCTGGGAGGAGAGGAAGGGAGGCACAGGGTAGGAGTGTGCAGAGCGGGGAGTGGATGGCAAACACACAATCCACCCAACCACATGTGCTCTTTACCCCCCAGCTGATCCAGAAGTACAAGGTGGTCCTGGCCCCGGAGACGGGTGCCAGTCGGATAGTGTTCC”, the binding signal (log2 relative supershift) in the assay with KLF4 + histone octamer is 1.67; in assay [1], 0.424; with OCT4 + histone octamer, -0.036; in the assay with SOX2 + histone octamer it was -0.851.

Regarding “GATGGACCCTATACGCGGCAGTAAATATTTCAGGCTCTGTGGGTTACGTATCGTTTCTGTTGCAGCAACTCAACTCTGCTCTTGGAGCACAGAAGCAGCCACAAATACGTAAACAAATGGGTGTGGCTGTACACCAGTAAAACTTTACAAAACAAGGAGTGGTCCACGGCCTCAGCGTGCCAGCCTCTGCTCTAAACCGTGACACCCAAATGCCAGTCGGATAGTGTTCC”, the binding signal (log2 relative supershift) is 1.91 in the assay with KLF4 + histone octamer, 0.382 in assay [1], -0.568 in the assay with OCT4 + histone octamer and -0.18 with SOX2 + histone octamer.

For “GATGGACCCTATACGCGGCACTCCAGAGGCAGAGATGGGACGACTGCTTGAGCCCAAGAGTTTAGTTAGAAGCTGCAGAGAGCTCTGGTCATGGCACTGCACTCCAGCCTGGGCAACAGAGCAAGACCTCATCTCCTGCCTGGGCGTGCTGGTTCATGCCTGTAATCCCAGCACTTTGGGAGACCGAAGCACATGGATCACTTGAGGTCATGCCAGTCGGATAGTGTTCC”, the binding signal (log2 relative supershift) with KLF4 + histone octamer is 0.116; in assay [1], 1.25; in the assay on OCT4 + histone octamer, -0.524; in the assay on SOX2 + histone octamer, -0.873.

Consider “GATGGACCCTATACGCGGCCTAAGTGCGGTCTCCAAATCACGATGATCAGCATCACTTGTTGGAACTTGTTGGGAATGCAAATTATCAAGCCCCACCCCAGACCTTTGTGATCTAAAAGCCCTCCAGGTGATTCTGATCCACACTGAAGCACGAGAACCACTGACCTTAGGAACTGTTACCTGTTCCTTTGCTTCCGTAGAGTGAAGTAATGCCAGTCGGATAGTGTTCC”, for which the binding signal (log2 relative supershift) was 0.786 in the assay with KLF4 + histone octamer, 0.354 in assay [1], -0.0315 in the assay on OCT4 + histone octamer and -0.192 in the assay on SOX2 + histone octamer.
